Results published in patent US20260248087A1, “GENERATING DOUBLED HAPLOID PLANTS” (Syngenta Crop Protection AG, priority 2023, published 2026).

Legend:
[1] = test system: diploid embryos; assay: Color expression of diploid embryos, co-treatment with benoxacor or dichlormid; format: in vivo, maize
[2] = test system: embryos from maize ears; assay: Escape rate (lab and greenhouse), co-treatment with metcamifen and thiamethoxam; format: in vivo
[3] = test system: isolated embryos; assay: Escape rate, thiamethoxam co-treatment during colchicine doubling; format: in vivo, maize; settings: co-treatment with colchicine
[4] = metcamifen 800 mg/L, 24 Hour co-treatment with colchicine
[5] = metcamifen 800 mg/L, 48 Hour co-treatment with colchicine
[6] = TMX 4000 mg/L, 24 Hour co-treatment with colchicine
[7] = TMX 6000 mg/L, 48 Hour co-treatment with colchicine

Structure (SMILES): CC1COc2ccccc2N1C(=O)C(Cl)Cl (centres unmarked) [Benoxacor, benoxacor]
- color expression (portion of diploid embryos visibly displaying purple pigment) ([1]; increasing concentration of benoxacor, 48-hour co-treatment): mild decrease in color expression

Structure (SMILES): C=CCN(CC=C)C(=O)C(Cl)Cl [Dichlormid, dichlormid]
- color expression (portion of diploid embryos colored purple) ([1]; dichlormid concentrations greater than 100 mg/L): steep decrease in color expression

Structure (SMILES): CNC(=O)Nc1ccc(S(=O)(=O)NC(=O)c2ccccc2OC)cc1 [Metcamifen, metcamifen]
- Genotype 1 GH Escapes [2, 4]: 24%
- Genotype 1 Lab Escapes [2, 4]: 0%
- Genotype 1 Total (escapes) [2, 4]: 24%
- Genotype 2 GH Escapes [2, 4]: 0%
- Genotype 2 Lab Escapes [2, 4]: 0%
- Genotype 2 Total (escapes) [2, 4]: 0%
- Genotype 1 GH Escapes ([2]; metcamifen 800 mg/L, 24 Hour co-treatment with colchicine, listed as metcamifen): 24%
- Genotype 1 GH Escapes [2, 5]: 5%
- Genotype 1 Lab Escapes [2, 5]: 0%
- Genotype 1 Total (escapes) [2, 5]: 5%
- Genotype 2 GH Escapes [2, 5]: 0%
- Genotype 2 Lab Escapes [2, 5]: 0%
- Genotype 2 Total (escapes) [2, 5]: 0%

Structure (SMILES): CN1COCN(Cc2cnc(Cl)s2)/C1=N\[N+](=O)[O-] [TMX, thiamethoxam]
- 24 hr Escape Rate ([3]; TMX 2000 mg/L): 0%
- 48 hr Escape Rate ([3]; TMX 2000 mg/L): 0%
- 24 hr Escape Rate ([3]; TMX 4000 mg/L): 8%
- 48 hr Escape Rate ([3]; TMX 4000 mg/L): 0%
- 24 hr Escape Rate ([3]; TMX 6000 mg/L): 60%
- 48 hr Escape Rate ([3]; TMX 6000 mg/L): 0%
- 24 hr Escape Rate ([3]; TMX 8000 mg/L): 50%
- 48 hr Escape Rate ([3]; TMX 8000 mg/L): 33%
- Genotype 1 GH Escapes [2, 6]: 16%
- Genotype 1 Lab Escapes [2, 6]: 3%
- Genotype 1 Total (escapes) [2, 6]: 19%
- Genotype 2 GH Escapes [2, 6]: 0%
- Genotype 2 Lab Escapes [2, 6]: 1%
- Genotype 2 Total (escapes) [2, 6]: 1%
- Genotype 1 GH Escapes [2, 7]: 9%
- Genotype 1 Lab Escapes [2, 7]: 9%
- Genotype 1 Total (escapes) [2, 7]: 17%
- Genotype 2 GH Escapes [2, 7]: 0%
- Genotype 2 Lab Escapes [2, 7]: 0%
- Genotype 2 Total (escapes) [2, 7]: 0%
